The supplement of paper PMC10849652
This is one part of the list.

Sequences of proteins named here, by UniProt entry; tags and fusion partners are left off. A change or cut given only in a name is not applied to a line headed by its entry.
UniProt Q96N46: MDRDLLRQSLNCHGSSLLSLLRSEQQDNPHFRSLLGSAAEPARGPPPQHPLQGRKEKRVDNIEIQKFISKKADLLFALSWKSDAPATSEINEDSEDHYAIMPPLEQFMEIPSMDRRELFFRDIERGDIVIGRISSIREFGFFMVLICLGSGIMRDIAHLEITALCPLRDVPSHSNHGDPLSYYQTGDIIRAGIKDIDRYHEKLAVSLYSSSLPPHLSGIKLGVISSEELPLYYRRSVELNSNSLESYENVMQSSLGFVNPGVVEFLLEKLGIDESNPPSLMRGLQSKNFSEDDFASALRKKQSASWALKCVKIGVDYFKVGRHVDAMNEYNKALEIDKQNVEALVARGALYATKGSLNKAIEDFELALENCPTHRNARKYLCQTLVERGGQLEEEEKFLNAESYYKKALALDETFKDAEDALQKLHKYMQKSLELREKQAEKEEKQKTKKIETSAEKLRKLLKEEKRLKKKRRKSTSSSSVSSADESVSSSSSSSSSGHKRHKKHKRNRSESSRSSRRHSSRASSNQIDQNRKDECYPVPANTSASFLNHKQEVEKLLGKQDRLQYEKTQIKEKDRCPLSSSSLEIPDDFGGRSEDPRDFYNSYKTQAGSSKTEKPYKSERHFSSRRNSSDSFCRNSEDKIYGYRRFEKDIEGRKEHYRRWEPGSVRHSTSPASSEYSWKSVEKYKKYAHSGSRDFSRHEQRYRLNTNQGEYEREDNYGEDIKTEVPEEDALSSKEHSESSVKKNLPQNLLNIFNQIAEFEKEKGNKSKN
UniProt O14817: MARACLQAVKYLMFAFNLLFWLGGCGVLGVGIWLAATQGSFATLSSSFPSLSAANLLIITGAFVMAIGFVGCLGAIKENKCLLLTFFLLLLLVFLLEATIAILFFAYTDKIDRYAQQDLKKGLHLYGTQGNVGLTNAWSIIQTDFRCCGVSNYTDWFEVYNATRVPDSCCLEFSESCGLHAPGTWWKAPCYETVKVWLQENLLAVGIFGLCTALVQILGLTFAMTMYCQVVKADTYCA
UniProt Q96RT8, whole entry, looked up: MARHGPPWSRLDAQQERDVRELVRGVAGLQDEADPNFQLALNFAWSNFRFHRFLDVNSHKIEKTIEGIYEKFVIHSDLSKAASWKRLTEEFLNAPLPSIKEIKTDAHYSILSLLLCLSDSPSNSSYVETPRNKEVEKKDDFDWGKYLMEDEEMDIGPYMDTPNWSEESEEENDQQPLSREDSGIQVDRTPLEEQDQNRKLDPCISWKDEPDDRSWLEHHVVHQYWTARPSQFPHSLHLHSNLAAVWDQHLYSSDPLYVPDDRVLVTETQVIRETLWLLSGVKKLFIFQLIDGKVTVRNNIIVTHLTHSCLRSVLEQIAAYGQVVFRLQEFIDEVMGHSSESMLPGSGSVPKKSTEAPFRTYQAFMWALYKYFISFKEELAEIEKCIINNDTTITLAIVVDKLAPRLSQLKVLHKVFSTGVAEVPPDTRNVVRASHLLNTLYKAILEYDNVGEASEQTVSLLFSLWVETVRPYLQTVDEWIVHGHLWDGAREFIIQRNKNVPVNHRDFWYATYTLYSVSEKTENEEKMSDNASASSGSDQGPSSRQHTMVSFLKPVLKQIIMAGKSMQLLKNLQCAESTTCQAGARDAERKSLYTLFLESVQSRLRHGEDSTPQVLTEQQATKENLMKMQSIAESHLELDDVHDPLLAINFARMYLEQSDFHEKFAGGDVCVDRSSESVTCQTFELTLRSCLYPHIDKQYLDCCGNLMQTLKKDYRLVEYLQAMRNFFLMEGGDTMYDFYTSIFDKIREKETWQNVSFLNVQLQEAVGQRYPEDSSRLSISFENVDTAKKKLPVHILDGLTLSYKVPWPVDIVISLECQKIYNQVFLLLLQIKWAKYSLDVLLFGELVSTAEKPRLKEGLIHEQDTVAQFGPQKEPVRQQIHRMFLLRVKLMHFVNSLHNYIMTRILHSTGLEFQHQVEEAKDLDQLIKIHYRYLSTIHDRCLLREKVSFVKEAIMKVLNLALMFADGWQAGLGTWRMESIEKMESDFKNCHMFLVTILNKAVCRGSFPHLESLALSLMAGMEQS
UBE2L5, A0A1B0GUS4, UniProt A0A1B0GUS4, whole entry, looked up: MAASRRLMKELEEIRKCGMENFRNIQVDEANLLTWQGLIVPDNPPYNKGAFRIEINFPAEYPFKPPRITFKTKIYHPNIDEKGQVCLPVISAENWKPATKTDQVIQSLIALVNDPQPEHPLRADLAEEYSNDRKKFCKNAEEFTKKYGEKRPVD
UniProt P51965: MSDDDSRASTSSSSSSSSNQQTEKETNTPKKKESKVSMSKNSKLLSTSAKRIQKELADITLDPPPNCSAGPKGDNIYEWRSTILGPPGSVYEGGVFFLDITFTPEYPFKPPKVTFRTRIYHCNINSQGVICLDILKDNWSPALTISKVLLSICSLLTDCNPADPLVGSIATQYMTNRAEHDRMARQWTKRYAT
UniProt Q16881, whole entry, looked up: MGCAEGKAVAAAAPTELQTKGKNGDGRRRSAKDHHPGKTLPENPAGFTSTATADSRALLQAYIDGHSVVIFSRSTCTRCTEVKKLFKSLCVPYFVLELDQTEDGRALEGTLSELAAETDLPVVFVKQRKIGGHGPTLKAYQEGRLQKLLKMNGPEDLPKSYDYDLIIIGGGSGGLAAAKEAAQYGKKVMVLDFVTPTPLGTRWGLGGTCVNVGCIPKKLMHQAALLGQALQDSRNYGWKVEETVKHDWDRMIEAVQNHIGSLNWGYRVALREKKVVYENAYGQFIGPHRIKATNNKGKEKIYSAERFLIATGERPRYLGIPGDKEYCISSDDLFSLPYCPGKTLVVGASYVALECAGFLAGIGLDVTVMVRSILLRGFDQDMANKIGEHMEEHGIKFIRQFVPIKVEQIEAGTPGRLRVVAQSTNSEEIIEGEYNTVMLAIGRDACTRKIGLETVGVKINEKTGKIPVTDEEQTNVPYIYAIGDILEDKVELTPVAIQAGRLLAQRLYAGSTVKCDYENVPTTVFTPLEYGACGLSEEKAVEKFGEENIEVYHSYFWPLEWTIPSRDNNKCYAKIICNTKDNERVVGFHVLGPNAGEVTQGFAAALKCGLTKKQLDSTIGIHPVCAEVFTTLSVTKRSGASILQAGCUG
UniProt Q14157: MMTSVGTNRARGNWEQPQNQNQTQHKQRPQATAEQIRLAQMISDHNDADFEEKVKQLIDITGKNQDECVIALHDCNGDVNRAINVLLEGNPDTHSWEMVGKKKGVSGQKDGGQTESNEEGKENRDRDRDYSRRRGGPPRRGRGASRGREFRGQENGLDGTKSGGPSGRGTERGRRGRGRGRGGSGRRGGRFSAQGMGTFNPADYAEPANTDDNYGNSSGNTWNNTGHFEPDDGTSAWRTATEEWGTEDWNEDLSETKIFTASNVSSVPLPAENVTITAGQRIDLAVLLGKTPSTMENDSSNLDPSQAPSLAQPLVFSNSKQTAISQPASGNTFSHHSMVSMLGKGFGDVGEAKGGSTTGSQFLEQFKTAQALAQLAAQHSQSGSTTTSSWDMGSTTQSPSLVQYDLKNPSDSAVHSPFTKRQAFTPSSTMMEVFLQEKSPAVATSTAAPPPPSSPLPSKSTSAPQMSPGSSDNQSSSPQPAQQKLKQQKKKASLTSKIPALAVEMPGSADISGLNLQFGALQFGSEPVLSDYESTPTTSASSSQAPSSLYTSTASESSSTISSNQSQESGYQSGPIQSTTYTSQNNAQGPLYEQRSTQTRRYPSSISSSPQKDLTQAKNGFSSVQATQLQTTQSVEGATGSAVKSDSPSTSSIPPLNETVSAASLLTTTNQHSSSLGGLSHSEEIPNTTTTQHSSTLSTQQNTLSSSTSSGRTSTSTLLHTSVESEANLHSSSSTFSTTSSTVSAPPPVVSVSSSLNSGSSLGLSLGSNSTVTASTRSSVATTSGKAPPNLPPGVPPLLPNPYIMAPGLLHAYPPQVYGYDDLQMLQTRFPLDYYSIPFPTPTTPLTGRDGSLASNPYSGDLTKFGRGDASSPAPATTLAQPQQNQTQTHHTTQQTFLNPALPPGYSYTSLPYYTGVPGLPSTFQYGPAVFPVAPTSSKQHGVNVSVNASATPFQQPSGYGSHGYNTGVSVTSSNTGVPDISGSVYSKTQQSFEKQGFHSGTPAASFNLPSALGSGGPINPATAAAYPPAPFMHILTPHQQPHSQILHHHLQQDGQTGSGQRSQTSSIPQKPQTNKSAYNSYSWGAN
UniProt Q16762: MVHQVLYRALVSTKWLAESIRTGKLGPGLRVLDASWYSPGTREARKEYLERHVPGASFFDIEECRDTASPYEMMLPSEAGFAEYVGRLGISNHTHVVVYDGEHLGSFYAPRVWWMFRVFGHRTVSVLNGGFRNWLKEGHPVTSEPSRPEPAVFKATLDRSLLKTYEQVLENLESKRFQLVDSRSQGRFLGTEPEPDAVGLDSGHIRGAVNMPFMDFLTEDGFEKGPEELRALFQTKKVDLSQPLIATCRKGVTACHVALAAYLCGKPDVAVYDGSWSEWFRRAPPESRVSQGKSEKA
UniProt Q969E8: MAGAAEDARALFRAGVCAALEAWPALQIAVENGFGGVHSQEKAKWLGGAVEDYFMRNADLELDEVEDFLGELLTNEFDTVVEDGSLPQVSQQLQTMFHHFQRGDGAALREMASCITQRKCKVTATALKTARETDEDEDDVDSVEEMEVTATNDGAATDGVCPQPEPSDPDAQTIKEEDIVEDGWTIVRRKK
UniProt Q9UJT0: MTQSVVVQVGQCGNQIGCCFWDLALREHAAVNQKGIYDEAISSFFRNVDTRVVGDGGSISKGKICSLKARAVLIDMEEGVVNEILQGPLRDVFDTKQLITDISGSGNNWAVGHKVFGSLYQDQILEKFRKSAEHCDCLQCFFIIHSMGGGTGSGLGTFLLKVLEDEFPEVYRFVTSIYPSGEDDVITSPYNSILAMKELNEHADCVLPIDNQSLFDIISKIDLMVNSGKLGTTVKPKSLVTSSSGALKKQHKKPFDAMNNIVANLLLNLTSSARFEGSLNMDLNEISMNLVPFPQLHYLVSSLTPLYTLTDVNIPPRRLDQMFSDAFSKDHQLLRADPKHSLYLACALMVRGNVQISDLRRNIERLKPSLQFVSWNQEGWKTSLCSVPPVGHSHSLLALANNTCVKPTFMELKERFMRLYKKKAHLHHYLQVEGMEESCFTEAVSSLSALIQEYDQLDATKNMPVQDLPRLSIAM
UniProt Q7Z4L5: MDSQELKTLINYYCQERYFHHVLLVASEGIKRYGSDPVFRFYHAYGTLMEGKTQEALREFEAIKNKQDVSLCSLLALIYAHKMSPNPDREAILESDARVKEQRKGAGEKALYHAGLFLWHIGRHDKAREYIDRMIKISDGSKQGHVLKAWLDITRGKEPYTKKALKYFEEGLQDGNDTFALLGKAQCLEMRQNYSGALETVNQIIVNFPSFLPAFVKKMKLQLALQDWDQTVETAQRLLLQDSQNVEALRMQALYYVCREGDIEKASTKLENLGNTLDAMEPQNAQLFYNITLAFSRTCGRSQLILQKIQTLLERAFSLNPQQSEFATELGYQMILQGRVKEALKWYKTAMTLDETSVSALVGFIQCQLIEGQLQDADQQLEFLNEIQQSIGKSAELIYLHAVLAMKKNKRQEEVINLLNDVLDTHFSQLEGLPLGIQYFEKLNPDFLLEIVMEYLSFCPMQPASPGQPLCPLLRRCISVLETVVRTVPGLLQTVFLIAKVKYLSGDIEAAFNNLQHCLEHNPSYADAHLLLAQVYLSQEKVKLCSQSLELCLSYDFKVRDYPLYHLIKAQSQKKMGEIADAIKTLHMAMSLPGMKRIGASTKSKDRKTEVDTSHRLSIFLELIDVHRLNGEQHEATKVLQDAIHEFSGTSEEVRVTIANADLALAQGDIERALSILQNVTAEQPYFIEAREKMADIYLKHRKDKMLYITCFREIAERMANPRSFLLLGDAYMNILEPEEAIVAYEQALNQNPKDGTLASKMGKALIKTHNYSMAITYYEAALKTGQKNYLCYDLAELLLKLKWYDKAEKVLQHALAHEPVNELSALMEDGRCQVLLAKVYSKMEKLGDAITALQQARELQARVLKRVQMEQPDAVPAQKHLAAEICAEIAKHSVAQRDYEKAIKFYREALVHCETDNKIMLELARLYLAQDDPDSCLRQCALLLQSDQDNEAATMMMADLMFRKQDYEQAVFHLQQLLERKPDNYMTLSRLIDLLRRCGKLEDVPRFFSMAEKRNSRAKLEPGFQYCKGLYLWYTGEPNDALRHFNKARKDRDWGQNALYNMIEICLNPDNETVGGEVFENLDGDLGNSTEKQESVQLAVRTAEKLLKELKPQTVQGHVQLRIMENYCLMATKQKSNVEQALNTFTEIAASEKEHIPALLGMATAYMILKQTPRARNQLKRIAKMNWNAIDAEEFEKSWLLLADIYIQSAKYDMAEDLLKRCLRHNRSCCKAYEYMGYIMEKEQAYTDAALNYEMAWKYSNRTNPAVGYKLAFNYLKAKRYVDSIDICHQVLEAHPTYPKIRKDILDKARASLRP

Columns and labels:
Test in all cases: log2 fold change, soluble protein after heating vs DMSO (PISA); higher = thermal stabilisation; K562 cells, 10 uM, 30 min; active = over 0.2 and 3.5 SD of the protein, either way, in both replicates (recomputed)
[1] = compound: C1=CC=C(C=C1)[C@H](COC2=CC3=C(C=C2)NC(=O)N3)NC(=O)C4=CC=CN(C4=O)CC5=CC(=C(C=C5)F)F
In short: (§1)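 Values are thermal stability changes relative to control samples and are taken from duplicates. They are stated as log2 fold changes. Before quantification by TMTpro 16plex LC-MS/MS with equalised channel sums, K562 cells at 2×10^6 cells/mL were treated with 10 μM compound for 30 min, heated in aliquots for 3 min across 48°C-58°C, pooled, extracted in PBS with 0.5% NP-40 at 4°C, and centrifuged at 21,000xg for 90 min to give the soluble supernatant.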

[2] = compound: CC1=C(SC2=C1C(=N[C@H](C3=NN=C(N32)C)CC(=O)N)C4=CC=C(C=C4)Cl)C
In short: as §1

[3] = compound: Cc1sc2c(c1C)C(c1ccc(Cl)cc1)=N[C@@H](CC(=O)OC(C)(C)C)c1nnc(C)n1-2
In short: as §1

[4] = compound: c1ccc([C@@H]2C[C@H]2NC2CCNCC2)cc1
In short: as §1

[5] = compound: CC1=C2C(=CC=C1)N=C(N(C2=O)C3=CC=CC=C3C)CN4C=NC5=C(N=CN=C54)N
In short: as §1

Measured: log2 fold change

TTC14 (UniProt Q96N46)
inactive: [1] 0.038 | [2] 0.434 | [3] -0.059 | [4] -0.008

TSPAN4 (UniProt O14817)
inactive: [1] 0.006 | [3] 0.128

TUBGCP5 (UniProt Q96RT8)
inactive: [1] 0.042 | [2] -0.05 | [3] 0.051 | [4] 0.023

UBE2L5, A0A1B0GUS4
inactive: [2] 0.014 | [5] 0.285 | [3] -0.004 | [4] -0.059

UBE2E1 (UniProt P51965)
inactive: [1] -0.107 | [5] 0.296 | [3] 0.036

TXNRD1 isoform 7 (UniProt Q16881)
inactive: [1] 0.046 | [5] 0.138

UBAP2L isoform 1 (UniProt Q14157)
inactive: [1] 0.038 | [2] 0.004 | [5] 0.059 | [3] 0.001 | [4] 0.011

TST (UniProt Q16762)
inactive: [2] 0.213 | [5] -0.038 | [4] -0.308

TSR2 (UniProt Q969E8)
inactive: [1] 0.01 | [2] 0.018 | [5] 0.025 | [3] -0.018 | [4] -0.011

TUBE1 (UniProt Q9UJT0)
inactive: [1] -0.053 | [2] 0.018 | [5] 0.018 | [3] -0.007 | [4] -0.132

TTC21B (UniProt Q7Z4L5)
inactive: [3] -0.016

TTC26
inactive: [1] 0.06 | [5] 0.02 | [3] 0.198
